Data as given in the supplement of paper PMC4683952.
Counter-ions that a name gives are not always drawn. The campaign covered roughly 1,200 compounds. About 50 (4%) showed activity. Rule as the data show it: all actives reach 1.3 or more but so do some inactives. The list shows a part of the results.

What follows are molecules tested on Lgr5 (MarsCy1-Lgr5-EGFP, U2OS) (assay: cell-surface Lgr5 expression (SCi1 fluorescence, background-subtracted) relative to WT DMSO (fold of DMSO control); higher = more Lgr5 at the plasma membrane, active = hit call of the paper). Conditions: U2OS MarsCy1-Lgr5-EGFP stable; treatment time: overnight; 16 µM; library: Johns Hopkins Clinical Compound Library.

| SMILES | cell-surface Lgr5 expression |
| --- | --- |
| C[C@@H]1CN([C@H]2CC[C@](C#N)(c3ccc(F)cc3)CC2)CC[C@]1(C(=O)O)c1ccccc1 [Levocabastine] | inactive: 0.953 |
| [Na+].[Na+].[O]=[Cr](=[O])([O-])[O-] [Sodium chromate] | inactive: 0.294 |
| C1CN1c1nc(N2CC2)nc(N2CC2)n1 [Triethylenemelamine] | inactive: 1.39 |
| C=CN1CCCC1=O.II [Povidone iodine (Polyvinylpyrrolidone-iodine complex)] | inactive: 1.24 |
| C=CN1CCCC1=O.II [Povidone iodine] | inactive: 0.672 |
| Cl[C@H]1[C@H](Cl)[C@@H](Cl)[C@@H](Cl)[C@H](Cl)[C@H]1Cl [Lindane (1,2,3,4,5,6-Hexachlorocyclohexane,γ-isomer)] | inactive: 1.03 |
| Oc1ccc(Cl)cc1Cc1cc(Cl)ccc1O [Dichlorophene (2,2 methylene bis 4-chlorophenol)] | inactive: 0.92 |
| CCC1(C)CC(=O)NC(=O)C1 [Bemegride (3-methyl-3-ethylglutarimide)] | inactive: 0.258 |
| C#CC(C)(O)CC (centres undefined) [Meparfynol (Methylpentynol, 3-Methyl-1-pentyn-3-ol)] | inactive: 0.883 |
| C[N+]1(C)CCCC(OC(=O)C(O)(c2ccccc2)c2ccccc2)C1 (centres undefined) [Mepenzolate bromide] | inactive: 0.979 |
| N[C@@H]1C[C@H]1c1ccccc1.N[C@H]1C[C@@H]1c1ccccc1 [Tranylcypromine HCL (trans-2-phenylcyclopropylamine)] | inactive: 0.565 |
| CCOC(=O)NC(O)C(Cl)(Cl)Cl (centres undefined) [Carbocloral (8-ethoxy-5-quinolinesulfonic acid)] | inactive: 0.471 |
| CNC(C)Cc1ccccc1OC (centres undefined) [Methoxyphenamine] | inactive: 1.06 |
| C=C1C[C@@H]2[C@H](CC[C@]3(C)C(=O)CC[C@@H]23)[C@@]2(C)C=CC(=O)C=C12 [Exemestane] | inactive: 1.48 |
| CC(=O)[C@H]1CC[C@H]2[C@@H]3CC[C@H]4C[C@H](O)CC[C@]4(C)[C@H]3C(=O)C[C@]12C [Alfaxalone] | inactive: 1.28 |
| CCCCCCCCCCCCCCCC[n+]1ccccc1 [Cetylpyridinium bromide monohydrate] | inactive: 1.23 |
| CCCCCCCCCCCCCCCC[n+]1ccccc1 [Cetylpyridinium (Pyrisept)] | inactive: 1.06 |
| CC(=O)OCC1=C(C(=O)[O-])N2C(=O)[C@@H](NC(=O)CCC[C@@H](N)C(=O)[O-])[C@H]2SC1.[Zn+2] [Cephalosporin C zinc salt] | inactive: 0.712 |
| CN(C)[C@@H]1C(=O)C(C(N)=O)=C(O)[C@@]2(O)C(=O)C3=C(O)c4c(O)cccc4[C@@](C)(O)[C@H]3[C@H](O)[C@@H]12 [Oxytetracycline hemicalcium salt] | inactive: 0.817 |
| O=C(C[S+]([O-])C(c1ccccc1)c1ccccc1)NO (centres undefined) [Adrafinil] | inactive: 1.16 |
| Oc1ccccc1-c1ccccc1 [2-Phenylphenol] | inactive: 1.18 |
| CNCC(O)c1ccc(O)cc1 (centres undefined) [Oxedrine (Synephrine)] | inactive: 1.35 |

In a second layout: entries from further up.
SMILES	cell-surface Lgr5 expression
C1CN1c1nc(N2CC2)nc(N2CC2)n1 [Triethylenemelamine]	inactive: 1.39
CCOC(=O)NC(O)C(Cl)(Cl)Cl (centres undefined) [Carbocloral (8-ethoxy-5-quinolinesulfonic acid)]	inactive: 0.471

(list continues)

| SMILES | cell-surface Lgr5 expression |
| --- | --- |
| CN1[C@@H]2CC[C@H]1C[C@@H](OC(=O)C(CO)c1ccccc1)C2 (some centres undefined) [Atropine sulfate] | inactive: 1.08 |
| OCC(Cl)(Cl)Cl [2,2,2-Trichloroethanol] | inactive: 0.698 |
| CNC(C)(C)Cc1ccccc1 [Mephentermine] | inactive: 1.2 |
| CNC(C)(C)Cc1ccccc1 [Mephentermine hemisulfate salt] | inactive: 0.95 |
| C[C@]12CCC(=O)C(O)=C1CC[C@@H]1[C@@H]2CC[C@]2(C)C(=O)CC[C@@H]12 [Formestane (4-Androsten-4-ol-3,17-dione)] | inactive: 1.18 |
| c1ccc(C2CC2)c(OCC2=NCCN2)c1 [Cirazoline hydrochloride] | inactive: 1.24 |
| CNC1(c2ccccc2Cl)CCCCC1=O.Cc1cccc(C)c1NC1=NCCCS1 (centres undefined) [Ketamine/Xylazine] | inactive: 1.1 |
| CC(C)(C)OC(=O)c1ncn2c1[C@@H]1CCCN1C(=O)c1c(Br)cccc1-2 [Bretazenil] | inactive: 1.17 |
| CN(C)C(=O)Oc1cccc([N+](C)(C)C)c1 [Neostigmine methyl sulfate] | inactive: 0.518 |
| CNC(=O)Oc1ccc2c(c1)[C@]1(C)CCN(C)[C@@H]1N2C [Eserine (PHYSOSTIGMINE)] | inactive: 0.976 |
| CCN(CC)CCOC(=O)C(O)(c1ccccc1)c1ccccc1 [Benactyzine HCL] | inactive: 1.22 |
| COc1ccc(C(=O)c2c(C)n(CCN3CCOCC3)c3ccccc23)cc1 [Pravadoline] | inactive: 1.11 |
| C[C@H]1[C@H]2Cc3ccc(O)cc3[C@]1(C)CCN2CC1CC1 [Cyclazocine] | inactive: 1.09 |
| CN1CCc2cc3c(cc2C1O)OCO3 (centres undefined) [Hydrastinine] | inactive: 0.22 |
| CN(CC(=O)O)C(=N)NP(=O)(O)O [Phosphocreatine] | inactive: 1.17 |
| CC(=O)Nc1cc([As](=O)(O)O)ccc1O [Acetarsone] | inactive: 1.37 |
| ClC1=C(Cl)C2(Cl)C(CBr)CC1(Cl)C2(Cl)Cl (centres undefined) [Bromocyclen] | inactive: 1.24 |
| C[C@@H]1O[C@@H](O[C@@H]2C=C3CC[C@@H]4[C@H](CC[C@]5(C)[C@@H](c6ccc(=O)oc6)CC[C@]45O)[C@@]3(C)CC2)[C@H](O)[C@H](O)[C@H]1O [Proscillaridin A] | inactive: 0.203 |
| FC(F)(F)c1ccc2c(c1)N(CCCN1CCN(CCCl)CC1)c1ccccc1S2 [Fluphenazine N-mustard (SKF-7171A)] | inactive: 0.894 |
| O=[N+]([O-])OCC(CO[N+](=O)[O-])O[N+](=O)[O-] [Nitroglycerine] | inactive: 1.07 |
| COP(=S)(OC)Oc1cc(Cl)c(Br)cc1Cl [Bromofos (Bromophos-methyl)] | inactive: 1.3 |
| NCCCNCCSP(=O)(O)O [Amifostine] | inactive: 1.35 |
